B1: SPAM1-GVCI: C-terminally truncated human PH20, precursor 465 aa (SEQ ID NO:35), mature 430 aa (SEQ ID NO:87) (protein, listed as Homo sapiens)
chain 1: MGVLKFKHIFFRSFVKSSGVSQIVFTFLLIPCCLTLNFRAPPVIPNVPFLWAWNAPSEFCLGKFDEPLDMSLFSFIGSPRINATGQGVTIFYVDRLGYYPYIDSITGVTVNGGIPQKISLQDHLDKAKKDITFYMPVDNLGMAVIDWEEWRPTWARNWKPKDVYKNRSIELVQQQNVQLSLTEATEKAKQEFEKAGKDFLVETIKLGKLLRPNHLWGYYLFPDCYNHHYKKPGYNGSCFNVEIKRNDDLSWLWNESTALYPSIYLNTQQSPVAATLYVRNRVREAIRVSKIPDAKSPLPVFAYTRIVFTDQVLKFLSQDELVYTFGETVALGASGIVIWGTLSIMRSMKSCLLLDNYMETILNPYIINVTLAAKMCSQVLCQEQGVCIRKNWNSSDYLHLNPDNFAIQLEKGGKFTVRGKPTLEDLEQFSEKFYCSCYSTLSCKEKADVKDTDAVDVCIADGVCI
chain 2: LNFRAPPVIPNVPFLWAWNAPSEFCLGKFDEPLDMSLFSFIGSPRINATGQGVTIFYVDRLGYYPYIDSITGVTVNGGIPQKISLQDHLDKAKKDITFYMPVDNLGMAVIDWEEWRPTWARNWKPKDVYKNRSIELVQQQNVQLSLTEATEKAKQEFEKAGKDFLVETIKLGKLLRPNHLWGYYLFPDCYNHHYKKPGYNGSCFNVEIKRNDDLSWLWNESTALYPSIYLNTQQSPVAATLYVRNRVREAIRVSKIPDAKSPLPVFAYTRIVFTDQVLKFLSQDELVYTFGETVALGASGIVIWGTLSIMRSMKSCLLLDNYMETILNPYIINVTLAAKMCSQVLCQEQGVCIRKNWNSSDYLHLNPDNFAIQLEKGGKFTVRGKPTLEDLEQFSEKFYCSCYSTLSCKEKADVKDTDAVDVCIADGVCI
modifications: HuPH20 precursor 1-465; Mature HuPH20 36-465
B2: SPAM1-IADG: C-terminally truncated human PH20, precursor 462 aa (SEQ ID NO:37), mature 427 aa (SEQ ID NO:89) (protein, listed as Homo sapiens)
chain 1: MGVLKFKHIFFRSFVKSSGVSQIVFTFLLIPCCLTLNFRAPPVIPNVPFLWAWNAPSEFCLGKFDEPLDMSLFSFIGSPRINATGQGVTIFYVDRLGYYPYIDSITGVTVNGGIPQKISLQDHLDKAKKDITFYMPVDNLGMAVIDWEEWRPTWARNWKPKDVYKNRSIELVQQQNVQLSLTEATEKAKQEFEKAGKDFLVETIKLGKLLRPNHLWGYYLFPDCYNHHYKKPGYNGSCFNVEIKRNDDLSWLWNESTALYPSIYLNTQQSPVAATLYVRNRVREAIRVSKIPDAKSPLPVFAYTRIVFTDQVLKFLSQDELVYTFGETVALGASGIVIWGTLSIMRSMKSCLLLDNYMETILNPYIINVTLAAKMCSQVLCQEQGVCIRKNWNSSDYLHLNPDNFAIQLEKGGKFTVRGKPTLEDLEQFSEKFYCSCYSTLSCKEKADVKDTDAVDVCIADG
chain 2: LNFRAPPVIPNVPFLWAWNAPSEFCLGKFDEPLDMSLFSFIGSPRINATGQGVTIFYVDRLGYYPYIDSITGVTVNGGIPQKISLQDHLDKAKKDITFYMPVDNLGMAVIDWEEWRPTWARNWKPKDVYKNRSIELVQQQNVQLSLTEATEKAKQEFEKAGKDFLVETIKLGKLLRPNHLWGYYLFPDCYNHHYKKPGYNGSCFNVEIKRNDDLSWLWNESTALYPSIYLNTQQSPVAATLYVRNRVREAIRVSKIPDAKSPLPVFAYTRIVFTDQVLKFLSQDELVYTFGETVALGASGIVIWGTLSIMRSMKSCLLLDNYMETILNPYIINVTLAAKMCSQVLCQEQGVCIRKNWNSSDYLHLNPDNFAIQLEKGGKFTVRGKPTLEDLEQFSEKFYCSCYSTLSCKEKADVKDTDAVDVCIADG
modifications: HuPH20 precursor 1-462; Mature HuPH20 36-462
B3: SPAM1-DGVC: C-terminally truncated human PH20, precursor 464 aa (SEQ ID NO:36), mature 429 aa (SEQ ID NO:88) (protein, listed as Homo sapiens)
chain 1: MGVLKFKHIFFRSFVKSSGVSQIVFTFLLIPCCLTLNFRAPPVIPNVPFLWAWNAPSEFCLGKFDEPLDMSLFSFIGSPRINATGQGVTIFYVDRLGYYPYIDSITGVTVNGGIPQKISLQDHLDKAKKDITFYMPVDNLGMAVIDWEEWRPTWARNWKPKDVYKNRSIELVQQQNVQLSLTEATEKAKQEFEKAGKDFLVETIKLGKLLRPNHLWGYYLFPDCYNHHYKKPGYNGSCFNVEIKRNDDLSWLWNESTALYPSIYLNTQQSPVAATLYVRNRVREAIRVSKIPDAKSPLPVFAYTRIVFTDQVLKFLSQDELVYTFGETVALGASGIVIWGTLSIMRSMKSCLLLDNYMETILNPYIINVTLAAKMCSQVLCQEQGVCIRKNWNSSDYLHLNPDNFAIQLEKGGKFTVRGKPTLEDLEQFSEKFYCSCYSTLSCKEKADVKDTDAVDVCIADGVC
chain 2: LNFRAPPVIPNVPFLWAWNAPSEFCLGKFDEPLDMSLFSFIGSPRINATGQGVTIFYVDRLGYYPYIDSITGVTVNGGIPQKISLQDHLDKAKKDITFYMPVDNLGMAVIDWEEWRPTWARNWKPKDVYKNRSIELVQQQNVQLSLTEATEKAKQEFEKAGKDFLVETIKLGKLLRPNHLWGYYLFPDCYNHHYKKPGYNGSCFNVEIKRNDDLSWLWNESTALYPSIYLNTQQSPVAATLYVRNRVREAIRVSKIPDAKSPLPVFAYTRIVFTDQVLKFLSQDELVYTFGETVALGASGIVIWGTLSIMRSMKSCLLLDNYMETILNPYIINVTLAAKMCSQVLCQEQGVCIRKNWNSSDYLHLNPDNFAIQLEKGGKFTVRGKPTLEDLEQFSEKFYCSCYSTLSCKEKADVKDTDAVDVCIADGVC
modifications: HuPH20 precursor 1-464; Mature HuPH20 36-464
B4: SPAM1-VCIA: C-terminally truncated human PH20, precursor 460 aa (SEQ ID NO:38), mature 425 aa (SEQ ID NO:90) (protein, listed as Homo sapiens)
chain 1: MGVLKFKHIFFRSFVKSSGVSQIVFTFLLIPCCLTLNFRAPPVIPNVPFLWAWNAPSEFCLGKFDEPLDMSLFSFIGSPRINATGQGVTIFYVDRLGYYPYIDSITGVTVNGGIPQKISLQDHLDKAKKDITFYMPVDNLGMAVIDWEEWRPTWARNWKPKDVYKNRSIELVQQQNVQLSLTEATEKAKQEFEKAGKDFLVETIKLGKLLRPNHLWGYYLFPDCYNHHYKKPGYNGSCFNVEIKRNDDLSWLWNESTALYPSIYLNTQQSPVAATLYVRNRVREAIRVSKIPDAKSPLPVFAYTRIVFTDQVLKFLSQDELVYTFGETVALGASGIVIWGTLSIMRSMKSCLLLDNYMETILNPYIINVTLAAKMCSQVLCQEQGVCIRKNWNSSDYLHLNPDNFAIQLEKGGKFTVRGKPTLEDLEQFSEKFYCSCYSTLSCKEKADVKDTDAVDVCIA
chain 2: LNFRAPPVIPNVPFLWAWNAPSEFCLGKFDEPLDMSLFSFIGSPRINATGQGVTIFYVDRLGYYPYIDSITGVTVNGGIPQKISLQDHLDKAKKDITFYMPVDNLGMAVIDWEEWRPTWARNWKPKDVYKNRSIELVQQQNVQLSLTEATEKAKQEFEKAGKDFLVETIKLGKLLRPNHLWGYYLFPDCYNHHYKKPGYNGSCFNVEIKRNDDLSWLWNESTALYPSIYLNTQQSPVAATLYVRNRVREAIRVSKIPDAKSPLPVFAYTRIVFTDQVLKFLSQDELVYTFGETVALGASGIVIWGTLSIMRSMKSCLLLDNYMETILNPYIINVTLAAKMCSQVLCQEQGVCIRKNWNSSDYLHLNPDNFAIQLEKGGKFTVRGKPTLEDLEQFSEKFYCSCYSTLSCKEKADVKDTDAVDVCIA
modifications: HuPH20 precursor 1-460; Mature HuPH20 36-460
B5: SPAM1-SSVA: C-terminally truncated human PH20, precursor 507 aa (SEQ ID NO:3), mature 472 aa (SEQ ID NO:55) (protein, listed as Homo sapiens)
chain 1: MGVLKFKHIFFRSFVKSSGVSQIVFTFLLIPCCLTLNFRAPPVIPNVPFLWAWNAPSEFCLGKFDEPLDMSLFSFIGSPRINATGQGVTIFYVDRLGYYPYIDSITGVTVNGGIPQKISLQDHLDKAKKDITFYMPVDNLGMAVIDWEEWRPTWARNWKPKDVYKNRSIELVQQQNVQLSLTEATEKAKQEFEKAGKDFLVETIKLGKLLRPNHLWGYYLFPDCYNHHYKKPGYNGSCFNVEIKRNDDLSWLWNESTALYPSIYLNTQQSPVAATLYVRNRVREAIRVSKIPDAKSPLPVFAYTRIVFTDQVLKFLSQDELVYTFGETVALGASGIVIWGTLSIMRSMKSCLLLDNYMETILNPYIINVTLAAKMCSQVLCQEQGVCIRKNWNSSDYLHLNPDNFAIQLEKGGKFTVRGKPTLEDLEQFSEKFYCSCYSTLSCKEKADVKDTDAVDVCIADGVCIDAFLKPPMETEEPQIFYNASPSTLSATMFIVSILFLIISSVA
chain 2: LNFRAPPVIPNVPFLWAWNAPSEFCLGKFDEPLDMSLFSFIGSPRINATGQGVTIFYVDRLGYYPYIDSITGVTVNGGIPQKISLQDHLDKAKKDITFYMPVDNLGMAVIDWEEWRPTWARNWKPKDVYKNRSIELVQQQNVQLSLTEATEKAKQEFEKAGKDFLVETIKLGKLLRPNHLWGYYLFPDCYNHHYKKPGYNGSCFNVEIKRNDDLSWLWNESTALYPSIYLNTQQSPVAATLYVRNRVREAIRVSKIPDAKSPLPVFAYTRIVFTDQVLKFLSQDELVYTFGETVALGASGIVIWGTLSIMRSMKSCLLLDNYMETILNPYIINVTLAAKMCSQVLCQEQGVCIRKNWNSSDYLHLNPDNFAIQLEKGGKFTVRGKPTLEDLEQFSEKFYCSCYSTLSCKEKADVKDTDAVDVCIADGVCIDAFLKPPMETEEPQIFYNASPSTLSATMFIVSILFLIISSVA
modifications: HuPH20 precursor 1-507; mature HuPH20 36-507

system: CHO-S cells; assay: Western blot analysis of PH20 expression in media and cells after transient expression; format: cell-based, Chinese Hamster; settings: band at approximately 66 kDa
Procedure: The mutant PH20-HZ24 plasmids generated in Example 1 were transiently […] into CHO—S cells (derived from Chinese Hamster Ovary CHO K1 cells) using GeneJuice® (Novagen) according to the manufacturer's instructions. In short, the CHO—S cells were grown in CD CHO medium supplemented with L-glutamine. Prior to transfection, the CHO—S cells were plated in 6-well plates, with approximately 5×10^5 cells per well, and grown overnight at 37° C. with 5% CO2. The medium was then removed and the CHO—S cells were washed 2 times with 1 mL serum-free medium. GeneJuice® was mixed with serum-free media followed by the addition of 2 μg mutant-HZ24 DNA. After incubating at room temperature for 5-15 minutes, the GeneJuice®/DNA mixture was added dropwise to an individual well containing the washed CHO—S cells. After 4 hours, the medium was replaced with 1 mL CD-CHO medium supplemented with L-glutamine and the cells were incubated for 72 hours at 37° C. with 5% CO2. Following expression, the media and cells were harvested separately.
The mutant PH20-HZ24 plasmids generated in Example 1 were transiently […] into CHO—S cells using GeneJuice® (Novagen) according to the manufacturer's instructions. […]
In this example, following transient expression, as described in Example 2 above, the media and cells were harvested separately and analyzed for PH20 expression and solublility by Western blot analysis. Solubility of the C-terminus truncation mutants was determined by examining whether the expressed protein was present in the growth media or in the cells. […] Cells expressing these mutants were treated with phosphoinositol-phospholipase C (PI-PLC), which cleaves the GPI-anchor allowing the release of soluble protein into the media, and the presence of PH20 in the resulting media and cells was determined by Western blot analysis.
Non-reduced samples were run on a 4-20% Tris-Glycine gel and transferred to PVDF membrane using iBlot (Invitrogen). For the Western blot, rabbit anti-PH20 IgG (0.5 μg/mL) was used as the primary antibody and HRP-conjugated goat anti-rabbit IgG (0.1 ng/mL, Cat#DC03L, EMD) was used as the secondary antibody. Evidence of expression is determined by a band at approximately 66 kDa, corresponding to recombinant human PH20 hyaluronidase.

Protein Expression, YES:
B1, B2, B3, B4, B5

Source: patent US9284543B2, “Neutral active soluble truncated PH20 polypeptides and uses thereof” (Halozyme, Inc., priority 2008, dated 2016)
